Test results: publication PMC9176222
Results are given in words; binding and its absence hold for the method and conditions named. Binding seen in cells or lysates may run through a third protein. Some binding calls cover weakened binding; strength is not graded here.

Key:
[1] = target: T1, CIPK7, coding sequence without the stop codon in pSPYNE(R)173-CAMBIA1300 (Arabidopsis thaliana) (UniProt Q9XIW0); test: split reporter; BiFC in N. benthamiana, 48 h after transfection; CIPK in pSPYNE(R)173, MTP10 in pSPYCE(M); YFP signal by confocal microscopy
T1 sequence: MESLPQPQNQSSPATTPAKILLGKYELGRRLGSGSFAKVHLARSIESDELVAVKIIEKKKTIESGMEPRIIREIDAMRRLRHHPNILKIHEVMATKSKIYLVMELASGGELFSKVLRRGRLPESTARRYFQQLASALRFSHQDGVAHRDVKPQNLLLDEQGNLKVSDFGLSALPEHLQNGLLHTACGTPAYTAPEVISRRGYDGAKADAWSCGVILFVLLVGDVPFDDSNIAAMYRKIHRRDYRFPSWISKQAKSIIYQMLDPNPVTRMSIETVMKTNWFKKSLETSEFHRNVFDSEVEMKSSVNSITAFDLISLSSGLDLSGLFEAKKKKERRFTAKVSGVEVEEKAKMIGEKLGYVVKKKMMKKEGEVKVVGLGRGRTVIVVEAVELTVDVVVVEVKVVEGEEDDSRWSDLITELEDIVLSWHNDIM

[2] = target: T2, CIPK26, coding sequence without the stop codon in pSPYNE(R)173-CAMBIA1300 (Arabidopsis thaliana) (UniProt Q84VQ3); test: as above
T2 sequence: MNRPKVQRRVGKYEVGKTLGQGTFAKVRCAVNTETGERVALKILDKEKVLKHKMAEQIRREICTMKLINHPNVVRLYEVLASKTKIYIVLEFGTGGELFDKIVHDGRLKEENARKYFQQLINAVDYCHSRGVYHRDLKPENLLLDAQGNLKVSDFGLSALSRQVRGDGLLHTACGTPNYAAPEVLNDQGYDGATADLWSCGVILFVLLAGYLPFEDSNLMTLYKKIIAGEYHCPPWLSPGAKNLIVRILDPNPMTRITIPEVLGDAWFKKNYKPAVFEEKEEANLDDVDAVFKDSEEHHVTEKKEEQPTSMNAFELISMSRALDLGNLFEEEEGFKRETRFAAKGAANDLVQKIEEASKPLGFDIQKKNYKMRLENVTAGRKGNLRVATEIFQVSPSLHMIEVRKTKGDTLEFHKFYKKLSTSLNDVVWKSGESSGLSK

binding [1]: binds
binding [2]: binds
B1: MTP10 (Metal Tolerance Protein 10), coding sequence in pSPYCE(M)-CAMBIA1300 (protein, UniProt Q0WU02 1-428)
chain: MPLNSYIFFLFLTTSPRNTFFGIRTHSDRIMATEHITRTGDEYNVELLPSDDDAPPLESSWRLNLDAFQLPSSTGGRHDGRTRFSRYFRTPRKERRVSEYYKKQERLLEGFNEMETIHENGFASGVPTEEEMKKLAKSERLAVHISNATNLVLFVAKVYASMESRSMAVIASTLDSLLDLLSGFILWFTANAMRKPNQFHYPIGKRRMQPVGIIVFASVMATLGLQVLLESGRQLVAKSGIHMNSTEEKWMIGIMVSVTIVKFLLMLYCRGFQNEIVRAYAQDHLFDVVTNSIGLATAVLAVKFYWWIDPTGAILIALYTIATWARTVLENVHSLIGRSAPPDFLAKLTFLIWNHHEQIKHIDTVRAYTFGSHYFVEVDIVLPEDMRLQEAHNIGETLQEKLEQLAEVERAFVHIDFEFTHRPEHKCN
